{
  "source": "patent US10351914B2",
  "about": "“Biomarkers for Pin1-associated disorders” (Beth Israel Deaconess Medical Center, Inc., priority 2014, dated 2019)",
  "test_system": "Pin1 acetylation",
  "test": "Pin1 acetylation in cells (Co-IP with anti-Flag antibody, immunoblotting with anti-acetyl lysine antibody)",
  "format": "cell-based",
  "conditions": "cells overexpressing p300 with Flag-Pin1; FIG. 1 D",
  "source_text": "FIG. 1 depicts HTS results for glucose starvation induced Pin1 deacetylation in cells 100. Different stress tests, such as heat shock, ultraviolet radiation, and glucose starvation (Glu^−), may produce an extracellular stimulus that could transform one or more cellular responses related to cell growth, differentiation, activation of transcript factors, glucose metabolism, control of proteins synthesis, and regulation of cell cycle. Among these stresses testes, glucose starvation (Glu^−), may reduce Pin1 acetylation without affecting its protein expression (FIG. 1 A). […] Protein acetylation may be catalytically modulated by a particular pair of histone acetyl transferase (HAT) and histone deacetylase (HDAC) (Yang and Seto, 2007). To identify the HAT and HDAC that modulates Pin1 acetylation, Flag-tagged Pin1 was expressed with several HATs including p300, CBP or GCN5 in cells, followed by co-immunoprecipitation (Co-IP) with anti-Flag antibody and immunoblotting with anti-acetyl lysine antibody. […] Moreover, Pin1 Co-IPed with p300, supporting that p300 is a HAT for Pin1. For the corresponding HDAC, various HDAC inhibitors targeting different HDAC categories were used, including Trichostatin A (TSA) and MS-275 for class I and II HDACs as well as Nicotinamide (NAM) and Splitomicin (Splito) for class III HDACs.",
  "note": "For at least one compound, name, drawing or mass did not settle the structure.",
  "data": [
    {"smiles": "C=C(C)[C@@H](CC=C(C)C)C[C@@]12C[C@@H](CC=C(C)C)C(C)(C)[C@@](CC=C(C)C)(C(=O)C(C(=O)c3ccc(O)c(O)c3)=C1O)C2=O", "note": "[Garcinol]", "values": [
      {"measurement": "effect on p300-increased Pin1 acetylation (Acetyl-Pin1)", "result": "reversed"}
    ]}
  ]
}
